Laboratory results from paper PMC8038949, “Structural basis for the DNA-binding activity of human ARID4B Tudor domain”.
Positions count from the first letter of the chain named. The comparison behind a weaker result is the experiment's own reference, which may not be listed here. Protein sequences can lack the tags named with them. For some assays here: Construct, isoform or probe ends are uncertain for at least one entry. For some assays here: At least one verdict rests on a figure or table, not on a statement of the authors.

Assays:
[1] = target: T1, ARID4B TD151 G143A (Homo sapiens) (UniProt Q4LE39); test: ITC; settings: Kd ratio AT18/GC18 ~1.1-1.3, Kd only in figure; 50 mM Tris-HCl pH 7.6, 50 mM NaCl (buffer A); ITC 25 C; recombinant protein; residues 1-151
T1 sequence (looked up): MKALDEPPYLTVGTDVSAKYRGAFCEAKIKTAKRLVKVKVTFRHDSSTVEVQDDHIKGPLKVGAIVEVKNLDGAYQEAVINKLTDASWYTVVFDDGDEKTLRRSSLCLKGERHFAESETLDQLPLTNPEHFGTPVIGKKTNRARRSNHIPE

[2] = target: T2, ARID4B TD151 K139A (Homo sapiens) (UniProt Q4LE39); test: ITC; settings: Kd ratio AT18/GC18 ~0.4-0.5, Kd only in figure; 50 mM Tris-HCl pH 7.6, 50 mM NaCl (buffer A); ITC 25 C; recombinant protein; residues 1-151
T2 sequence (looked up): T1 sequence (looked up) with K139A, A143G

[3] = target: T3, ARID4B TD151 R142A (Homo sapiens) (UniProt Q4LE39); test: ITC; settings: Kd ratio AT18/GC18 ~1.1-1.3, Kd only in figure; 50 mM Tris-HCl pH 7.6, 50 mM NaCl (buffer A); ITC 25 C; recombinant protein; residues 1-151
T3 sequence (looked up): T1 sequence (looked up) with R142A, A143G

[4] = target: T4, ARID4B TD151 R144A (Homo sapiens) (UniProt Q4LE39); test: ITC; settings: Kd ratio AT18/GC18 ~1.1-1.3, Kd only in figure; 50 mM Tris-HCl pH 7.6, 50 mM NaCl (buffer A); ITC 25 C; recombinant protein; residues 1-151
T4 sequence (looked up): T1 sequence (looked up) with A143G, R144A

[5] = target: T5, ARID4B TD151 R145A (Homo sapiens) (UniProt Q4LE39); test: ITC; settings: Kd ratio AT18/GC18 ~0.4-0.5, Kd only in figure; 50 mM Tris-HCl pH 7.6, 50 mM NaCl (buffer A); ITC 25 C; recombinant protein; residues 1-151
T5 sequence (looked up): T1 sequence (looked up) with A143G, R145A

[6] = target: T6, ARID4A TD121 L50E (Homo sapiens) (UniProt P29374); test: EMSA; settings: weaker than wild-type ARID4A TD121; 50 mM Tris-HCl pH 7.6, 50 mM NaCl (buffer A); EMSA 4 C, 12 uM DNA, 8% native gel in TBE; recombinant protein; residues …
T6 sequence (looked up): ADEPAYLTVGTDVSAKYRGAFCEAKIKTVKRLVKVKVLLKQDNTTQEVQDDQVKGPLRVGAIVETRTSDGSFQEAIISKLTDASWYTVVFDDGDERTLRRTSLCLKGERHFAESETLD

Measured: binding result

CGCACCGATCCGTGACGG (double strand) [dsGC18]
not listed: [6]
binds more weakly: all other assays above

CTCAGGTCAAAGGTCACG / TCGTGACCTTTGACCTGA [dsDNA1]
binds more weakly: [6]

CGCAATTATATATTACGG (double strand) [dsAT18]
not listed: [6]
binds more weakly: all other assays above
